Data published in PMC12502754.
These are yes or no findings as the source states them, for the method shown. Binding seen in cells or lysates may run through a third protein. Some results given as binding are weak or reduced against the parent protein; the word gives no strength. Tags and fused reporters may be left off the sequences shown.

The chains behind the UniProt entries cited, without tags or fusion partners.
UniProt P03466: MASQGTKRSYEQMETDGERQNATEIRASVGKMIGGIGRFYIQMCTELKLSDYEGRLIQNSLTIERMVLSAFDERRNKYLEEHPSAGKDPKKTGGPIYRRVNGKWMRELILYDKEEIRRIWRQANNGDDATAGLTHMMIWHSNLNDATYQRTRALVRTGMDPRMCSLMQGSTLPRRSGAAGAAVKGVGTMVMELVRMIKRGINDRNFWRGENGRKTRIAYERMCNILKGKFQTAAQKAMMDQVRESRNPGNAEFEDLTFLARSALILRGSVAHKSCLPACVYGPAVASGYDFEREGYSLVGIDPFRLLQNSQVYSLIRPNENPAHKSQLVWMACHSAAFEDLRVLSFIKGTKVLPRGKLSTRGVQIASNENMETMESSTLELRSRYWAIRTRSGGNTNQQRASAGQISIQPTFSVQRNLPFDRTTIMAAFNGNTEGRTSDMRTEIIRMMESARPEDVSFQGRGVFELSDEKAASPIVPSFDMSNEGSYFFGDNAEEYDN

Molecular target: T1, conserved oligomeric Golgi complex subunit 6 (COG6) fused with 3×Flag tag at C-terminus (human) (UniProt Q9Y2V7)
T1 sequence: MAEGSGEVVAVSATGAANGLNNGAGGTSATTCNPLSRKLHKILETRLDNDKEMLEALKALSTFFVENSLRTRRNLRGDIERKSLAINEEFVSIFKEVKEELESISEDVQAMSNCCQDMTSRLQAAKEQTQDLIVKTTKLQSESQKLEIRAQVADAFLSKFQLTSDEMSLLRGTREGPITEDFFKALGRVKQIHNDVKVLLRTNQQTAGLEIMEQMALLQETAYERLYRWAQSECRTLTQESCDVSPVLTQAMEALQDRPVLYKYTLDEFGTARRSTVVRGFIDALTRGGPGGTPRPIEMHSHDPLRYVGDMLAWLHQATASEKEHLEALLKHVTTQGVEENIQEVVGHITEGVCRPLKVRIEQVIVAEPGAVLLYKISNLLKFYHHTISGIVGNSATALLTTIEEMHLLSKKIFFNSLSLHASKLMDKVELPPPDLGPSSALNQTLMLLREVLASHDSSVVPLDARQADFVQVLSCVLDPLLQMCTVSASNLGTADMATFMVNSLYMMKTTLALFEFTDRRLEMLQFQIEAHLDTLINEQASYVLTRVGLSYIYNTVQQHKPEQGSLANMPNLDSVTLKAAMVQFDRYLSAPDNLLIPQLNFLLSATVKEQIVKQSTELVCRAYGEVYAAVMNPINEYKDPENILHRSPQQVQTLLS
Test: co-IP

For “nucleoprotein (NP) of influenza virus A/Puerto Rico/8/1934 (PR8) (from UniProt P03466 1-498)”, the binding was “binds”.
